Experimental data: PubChem BioAssay AID1259415 (National Center for Advancing Translational Sciences (NCATS), 2018)
Out of some 410,000 compounds screened, about 18,000 (4.4%) were called active. Inconclusive results, whose numbers are uncertain, are shown with a selection of clear calls. Cut-off read from the data, not from the text of the source: active = activity change below about -60%; inconclusive = no clear call, values can overlap the other calls; inactive = above about -39%. Where a structure was tested more than once in an assay, its records may differ in their call.
% is set by controls: 0 for no effect and ±100 for the full control effect.

Assay: qHTS Assay for inhibitors of the human cytomegalovirus (HCMV)
Conditions: HFF cells, HCMV-luciferase reporter, 72 h; at 57.5 µM; hits give low values
Summary of the method: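 Cell-based, HFFs, 1000 cells/well, 16 h 37C; cpds in DMSO + HCMV-luc, MOI 1 PFU/cell; 72 h 37C; OneGlo luminescence after 5 min RT; norm. to buffer vs Salinomycin 10uM.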
For `COC(=O)c1ccc(C(=O)OC)c(NC(=O)CN2CCN(c3ccc(OC)cc3)CC2)c1`, the activity change, negative = inhibition was inactive: -21.3%. For `COC(=O)c1ccc(/C=C(\C#N)c2ccccn2)cc1`, the activity change, negative = inhibition was inactive: -26%. For `Cc1[nH]c2ccccc2c1/C=N/NC(=O)c1cccc(S(=O)(=O)Nc2cccc(C(F)(F)F)c2)c1`, the activity change, negative = inhibition was inconclusive: -54.7%. In the case of `CN(C)C(=O)CCSc1nnc(-c2ccncc2)o1`, the activity change, negative = inhibition is reported as inconclusive: -51%. For `COc1ccc(/C=C2\Oc3cc(OCC(N)=O)ccc3C2=O)cc1OC`, the activity change, negative = inhibition was inactive: 25.8%. For `NC(=O)c1cc2ccccc2o/c1=N/NC(=O)c1ccccc1`, the activity change, negative = inhibition was inconclusive: -59.9%. For `CCc1nc2ccccc2n1CCc1ccccc1`, the activity change, negative = inhibition was inconclusive: -44.4%. In the case of `CCCCn1c(CN2CCN(c3cccc(Cl)c3)CC2)nc2c1c(=O)n(C)c(=O)n2C`, the activity change, negative = inhibition is reported as active: -88.8%. With `CNc1n[nH]c(=S)s1` the activity change, negative = inhibition was inactive: -17.9%. With `O=C1C=C(NCc2ccc(Cl)c(Cl)c2)C2(CCCCC2)O1` the activity change, negative = inhibition was inconclusive: -40.8%. With `COc1ccc(N2CC(NS(=O)(=O)c3ccc4ccccc4c3)CC2=O)cc1` (stereo unspecified) the activity change, negative = inhibition was inconclusive: -46.1%. With `CCCCc1ccc(-n2c(Cc3cccs3)n[nH]c2=S)cc1` the activity change, negative = inhibition was inconclusive: -47.2%. In the case of `Cc1ccc(CNC(=O)Cn2c(SCC(=O)Nc3ccc(F)cc3)nc3ccccc32)cc1`, the activity change, negative = inhibition is reported as active: -92.9%. With `COc1cc(NC(=S)N2CCCC(C)C2)c(OC)cc1Cl` (stereo unspecified) the activity change, negative = inhibition was inconclusive: -50.8%. With `CC1C(=O)N(Cc2cccc(F)c2)c2ccccc2N1C(=O)c1ccccc1` (stereo unspecified) the activity change, negative = inhibition was inconclusive: -56%. In the case of `CCC(C)C(NC(=O)c1ccccc1NC(=O)c1ccc(OC)cc1)C(=O)NCc1ccco1` (stereo unspecified), the activity change, negative = inhibition is reported as inconclusive: -52.1%. With `CCC1CCCCN1C(=O)COC(=O)c1cc(=O)[nH]c2ccccc12` (stereo unspecified) the activity change, negative = inhibition was inactive: -2.32%. With `O=C(Cc1c(F)cccc1Cl)NNC(=O)c1cccs1` the activity change, negative = inhibition was inactive: -39.1%. With `COC(=O)c1ccc(NC(=O)CN2CCN(S(=O)(=O)c3cc(Cl)ccc3OC)CC2)cc1` the activity change, negative = inhibition was inconclusive: -40.1%. With `CC(=O)Oc1ccccc1Cn1c(C)c(C(=O)N(C)Cc2ccc(F)cc2)sc1=O` the activity change, negative = inhibition was inconclusive: -45.8%. With `Cc1ccc(C(=O)N2CCC3(CC2)Oc2ccc(F)cc2C(=O)C32CC(c3ccc(Cl)cc3)=NO2)s1` (stereo unspecified) the activity change, negative = inhibition was inactive: 28.8%. For `CC[C@]1(c2ccccc2C)ON(c2ccccc2C(F)(F)F)C1=O`, the activity change, negative = inhibition was inactive: 34.3%. In the case of `CCOc1ccc(C2C(=O)N(C3CCCCCC3)CC(=O)N2Cc2ccccc2)cc1OC` (stereo unspecified), the activity change, negative = inhibition is reported as inconclusive: -53.4%. With `O=C(O)c1cccc(N(CCO)CCO)c1` the activity change, negative = inhibition was inconclusive: -45.4%. In the case of `O=C(Nc1ccc(Cl)cn1)c1ccccc1[N+](=O)[O-]`, the activity change, negative = inhibition is reported as inactive: 45.6%. In the case of `O=C(COc1ccccc1Cl)Nc1ccccc1C(=O)N1CCCCC1`, the activity change, negative = inhibition is reported as inactive: 85.5%. In the case of `Cc1cc(-c2c(C)[nH]n(-c3ccccc3)c2=O)n[nH]1`, the activity change, negative = inhibition is reported as inactive: -28.4%. In the case of `O=C(C1=C[C@@H](c2ccc(C(F)(F)F)cc2)C[C@@H](OCc2ccc(CO)cc2)O1)N1CCN(Cc2ccc3c(c2)OCO3)CC1`, the activity change, negative = inhibition is reported as inactive: 5%. For `NC1=NC(c2cn(-c3ccccc3)nc2-c2cccs2)n2c(nc3ccccc32)N1` (stereo unspecified), the activity change, negative = inhibition was inconclusive: -45.8%. In the case of `CC(C)(C)c1ccc(OCCOc2ccc(C(C)(C)C)cc2NC=O)c(NC=O)c1`, the activity change, negative = inhibition is reported as inconclusive: -50.5%. For `COc1ccc(C(=O)Nn2c(SCC(=O)N3CCC(C)CC3)nc3ccccc3c2=O)cc1`, the activity change, negative = inhibition was active: -62.4%. With `CCc1ccc(N(CC(=O)NCC2CCCO2)C(=O)CCC(=O)Nc2nccs2)cc1` (stereo unspecified) the activity change, negative = inhibition was inconclusive: -44.6%. For `CCCCc1cc(=O)oc2cc(C)cc(O)c12`, the activity change, negative = inhibition was inconclusive: -57.9%. For `CCc1ccc(CNC(=O)CCCn2ccc3cc(S(=O)(=O)N4CCCC4)ccc32)cc1`, the activity change, negative = inhibition was active: -88.6%. In the case of `Cc1ccc(C(=O)NC(C(=O)OCc2cn3cc(Cl)ccc3n2)C(C)C)cc1` (stereo unspecified), the activity change, negative = inhibition is reported as inconclusive: -47.8%. In the case of `COc1ccc(C)cc1NC(=O)CCN1CCN(c2ccccc2)CC1`, the activity change, negative = inhibition is reported as inconclusive: -45.2%. For `O=C1NC(=Nc2ccccc2Cl)S/C1=C\c1cccc([N+](=O)[O-])c1`, the activity change, negative = inhibition was inconclusive: -46.5%. With `Cc1ccc(Oc2nnc(-c3cccs3)c3ccccc23)cc1C` the activity change, negative = inhibition was active: -61.9%. For `Cc1cc(-c2nnc(-c3cccc(C(F)(F)F)c3)o2)no1`, the activity change, negative = inhibition was inconclusive: -41.5%. With `Cc1ccc(-c2csc(/C=C3\SC(C)C(=O)N3CC(=O)Nc3ccccc3F)n2)cc1` (stereo unspecified) the activity change, negative = inhibition was inconclusive: -44.6%. For `Cn1ccc2c(N3c4ccccc4CCc4ccccc43)cc3c(c21)C1CCC3O1` (stereo unspecified), the activity change, negative = inhibition was inactive: 21.5%. For `O=C(c1cc2c(cc1Br)OCCCO2)N1CCCCC1`, the activity change, negative = inhibition was inconclusive: -42.4%. For `CC(C(=O)N1c2ccccc2Sc2ccccc21)n1nnc(-c2cccs2)n1` (stereo unspecified), the activity change, negative = inhibition was inactive: -24.1%. With `CC1(C)Cc2nc(N3CCOCC3)c(C#N)cc2CO1` the activity change, negative = inhibition was inconclusive: -49.1%. For `CC(/C=C/c1ccccc1)=N/NC(=O)CNC(=O)c1ccc2c(c1)OCO2`, the activity change, negative = inhibition was inconclusive: -40.8%. For `O=S(=O)(c1cccs1)N1CCN(CCOc2ccccc2)CC1`, the activity change, negative = inhibition was inconclusive: -43.1%. In the case of `Cc1c(CN2CCC(n3nccc3NC(=O)C3CCOC3)CC2)[nH]c2ccccc12` (stereo unspecified), the activity change, negative = inhibition is reported as inconclusive: -41.9%. For `CC(C)Oc1ccc(S(=O)(=O)N2CCCCC2)cc1NC(=O)C1=COCCO1`, the activity change, negative = inhibition was inactive: -19.7%. In the case of `CC(=O)N1CCN(CCS(=O)(=O)c2ccc(Br)cc2)CC1`, the activity change, negative = inhibition is reported as inactive: -23.1%. For `COc1ccc(-c2cc(=O)oc3cc(OC(=O)C4CCCCC4)ccc23)cc1`, the activity change, negative = inhibition was inconclusive: -54.8%. With `CCN(CCNC(=O)C1=C(C)C(=O)OC12CCC(C)CC2)c1ccccc1` (stereo unspecified) the activity change, negative = inhibition was inconclusive: -42.5%. In the case of `O=C1C=C(c2ccc(Cl)c(C(F)(F)F)c2)C[C@@H](c2ccc3c(c2)OCO3)C1`, the activity change, negative = inhibition is reported as inconclusive: -45.3%. In the case of `Cc1noc(C)c1-c1ccc2ncnc(NCC3CCCCN3C)c2c1` (stereo unspecified), the activity change, negative = inhibition is reported as inactive: -1.62%. With `O=C(CN1CCOCCOCCOCC1)Nc1ccccc1` the activity change, negative = inhibition was inactive: 41%. For `COc1ccc(COc2ccsc2C(=O)Nc2ccc(Cl)c(Cl)c2)cc1`, the activity change, negative = inhibition was inconclusive: -46.5%. In the case of `Cc1cc(C)c2cc(CN(CC3CCCO3)C(=S)NCc3ccco3)c(=O)[nH]c2c1` (stereo unspecified), the activity change, negative = inhibition is reported as inconclusive: -46.5%. For `CN1C(C(=O)NCc2ccc(OC(F)(F)F)cc2)CC2Cn3c(nc4ccccc43)C21` (stereo unspecified), the activity change, negative = inhibition was inactive: 4.48%. With `CCC(=O)N1CCN(c2cc(NCC3CCCO3)c(F)cc2[N+](=O)[O-])CC1` (stereo unspecified) the activity change, negative = inhibition was inconclusive: -53.8%. For `Cc1ccc(CN2CCN(Cc3cnc(C)[nH]3)CC2CCO)cc1` (stereo unspecified), the activity change, negative = inhibition was inactive: -11.9%. With `CCc1nnc2c(N3CCN(c4cccc(C)c4)C(C)C3)nc3ccccc3n12` (stereo unspecified) the activity change, negative = inhibition was inconclusive: 0%. In the case of `CN(C(=O)c1ccc(NC(=O)Cc2cccc(NC(=O)C3CCCN(C(=O)C4CCCC4)C3)c2)cc1)C1CC1` (stereo unspecified), the activity change, negative = inhibition is reported as inactive: 15.2%. In the case of `CS(=O)(=O)N1CCc2cc(S(=O)(=O)Nc3ccc4c(c3)OCCO4)ccc21`, the activity change, negative = inhibition is reported as active: -84.4%. In the case of `Cc1ccc(NC(=O)Nc2cccc(Cl)c2)c(C(=O)O)c1`, the activity change, negative = inhibition is reported as inconclusive: -59.4%. In the case of `Cc1cccc(S(=O)(=O)Nc2cccc(-c3ccc(N4CCCCC4)nn3)c2)c1`, the activity change, negative = inhibition is reported as inconclusive: -55.6%. In the case of `COC(=O)c1ccc(NC(=S)N(Cc2cccnc2)Cc2ccco2)cc1`, the activity change, negative = inhibition is reported as inconclusive: -41.3%. For `C#CCN1CC(COCCCC)Oc2cccc(F)c2S1(=O)=O` (stereo unspecified), the activity change, negative = inhibition was inactive: -15.5%. For `Cc1cc(C(=O)N2CCN(c3ccc([N+](=O)[O-])cc3)CC2)co1`, the activity change, negative = inhibition was inconclusive: -42.3%. For `COc1cc(C(=O)NCC2(N(C)C)CCCCC2)ccc1OCc1ccccc1`, the activity change, negative = inhibition was inactive: -16.6%. For `Cn1cnc2c1c(=O)n(Cc1c(Cl)cccc1Cl)c(=O)n2C`, the activity change, negative = inhibition was inactive: -6.74%. For `COc1ccc(OC)c(C(=O)CC2OC(=O)c3ccccc32)c1` (stereo unspecified), the activity change, negative = inhibition was active: -89.7%. With `COc1ccc(C)cc1NC(=O)CN1c2cccc3cccc(c23)S1(=O)=O` the activity change, negative = inhibition was active: -63.9%. In the case of `CC(C)CNC(=O)c1ccc(-c2ccc(F)c(F)c2)c2ccoc12`, the activity change, negative = inhibition is reported as inactive: -3.25%. In the case of `COc1ccc(-c2nc3c(c(SCC(=O)Nc4cccc(O)c4)n2)Cc2c(CO)cnc(C)c2O3)cc1`, the activity change, negative = inhibition is reported as active: -62.5%. In the case of `CC(Sc1nnc(C(F)(F)F)n1C)C(=O)Nc1ccc(S(N)(=O)=O)cc1` (stereo unspecified), the activity change, negative = inhibition is reported as inactive: 16.7%. In the case of `CC1CCc2onc(C(=O)N3CCN(c4ccccc4)CC3)c2C1` (stereo unspecified), the activity change, negative = inhibition is reported as inconclusive: -40.6%. For `Cc1cc(-c2ccccc2)n(-c2cc(N/N=C/c3ccccc3O)ncn2)n1`, the activity change, negative = inhibition was active: -96.2%. In the case of `N#CCCN(Cc1cccnc1)C(=O)c1sc2cc(F)ccc2c1Cl`, the activity change, negative = inhibition is reported as inconclusive: -58.3%. In the case of `CC1=C(CO)C(=O)OC([C@@H](C)C2CC[C@H]3C4C[C@H]5O[C@]56[C@@H](O)C=CC(=O)[C@]6(C)C4CC[C@]23C)C1` (stereo partly specified), the activity change, negative = inhibition is reported as active: -107%. For `C=CCn1c(O)c(C(CC)=NCc2cc(OC)cc(OC)c2)c(=O)[nH]c1=O`, the activity change, negative = inhibition was inactive: 140%. With `CCN(CC(=O)NCc1ccc(F)cc1)CC(=O)Nc1ccccc1-c1ccccc1` the activity change, negative = inhibition was inactive: 18.4%. For `CCOc1ccc(CNC(=O)C2CC(=O)N(C3CCCC3)C2)cc1OC` (stereo unspecified), the activity change, negative = inhibition was inconclusive: -56.4%. For `COC(=O)COc1ccc(C2C(C(=O)OC)=C(C)NC3=C2C(=O)c2ccccc23)cc1OC` (stereo unspecified), the activity change, negative = inhibition was active: -108%. With `CNC(=S)NNC(=O)c1ccc(=O)n(Cc2ccc(Cl)cc2Cl)c1` the activity change, negative = inhibition was inconclusive: -55.9%. With `CCN1CCN(Cc2ccc(NC(=O)c3cc(NC(=O)c4cncc(-c5ccc(C#N)cc5)c4)cc(OC)c3)cc2C(F)(F)F)CC1` the activity change, negative = inhibition was active: -99.4%. With `COc1cccc(/C=N/n2cnnc2)c1OCc1ccccc1` the activity change, negative = inhibition was inconclusive: -55.7%. With `O=C(Nc1ccc(O)cc1)c1ccccc1OCc1ccccc1` the activity change, negative = inhibition was active: -77.2%.
